From PubChem BioAssay AID504834 (National Center for Advancing Translational Sciences (NCATS), 2011)
Among all 320,000 compounds or so, about 22,000 (6.9%) were called active. The inconclusive results got no clear call from the source; some entries with a clear call stand among them for comparison. Calls come from the whole dose curve; as a rule, active = well fitted inhibition curve with a large enough effect; inconclusive = small, poorly fitted or top-dose-only effect, or another doubt; inactive = no such curve, though single readings can be large or run the other way. A potency beside an inconclusive call is a rough fit, not a confirmed value.

assay: Primary qHTS for delayed death inhibitors of the malarial parasite plastid, 96 hour incubation; conditions: P. falciparum luciferase reporter growth; series mostly up to 28.7 µM
Method in brief: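 Readout is luminescence from an integrated firefly luciferase in P. falciparum. Red cells, 2% hematocrit and 0.05% parasitemia final, were cultured with compound through two parasite generations (96 hours) at 37 C, 5% CO2.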
Potency is the fitted concentration of half-maximal effect.

| Compound | Potency |
| --- | --- |
| Cc1ccc(O)c(NC(=O)c2cc(C)no2)c1 | inactive |
| Cc1nc2c(c(=O)c3ccccc3n2C)c(=O)n1-c1ccccc1 | inconclusive: 11.7 µM [inhibitor, single point] |
| O=S(=O)(c1ccc2c(c1)OCO2)N1CCN(c2nnnn2-c2ccccc2)CC1 | inconclusive: 18.5 µM [inhibitor, single point] |
| CCN(C(=O)c1coc(=O)c(Br)c1)c1ccc2c(c1)OCO2 | inconclusive: 3.29 µM [inhibitor, full curve] |
| O=C(NCCC1=CCCCC1)c1ccc(Br)o1 | inactive |
| CC(C)(C)NS(=O)(=O)c1ccc(/C=C/C(=O)O)cc1 | inconclusive: 0.0329 µM [inhibitor, full curve, poor fit] |
| C[C@H](NC(=O)c1ccc(Cl)cc1)C(=O)NNC(=O)c1cccs1 | inactive |
| COc1ccc(CCNC(=O)COc2ccc(N(C)S(=O)(=O)c3ccc(C)cc3)cc2)cc1OC | inactive |
| Cc1ccc(N2CCN(S(=O)(=O)c3nnc(NC(=O)c4ccco4)s3)CC2)cc1 | inactive |
| O=C(Nc1ccccc1F)C1C2C=CC3(O2)C1C(=O)N(c1cccnc1)C3C(=O)NC1CCCCC1 (stereo unspecified) | active: 13.1 µM |
| O=[N+]([O-])c1ccc(N2N=C(c3ccco3)CC2c2ccccc2)cc1 (stereo unspecified) | inconclusive: 18.5 µM [inhibitor, single point] |
| COc1ccc(OC)c(NC(=O)c2cc(-c3cc(C)cc(C)c3O)n[nH]2)c1 | active: 9.28 µM |
| COCCNc1nc(N)c([N+](=O)[O-])c(NCCO)n1 | inactive |
| CC(C)Oc1cccc(C(=O)Nc2ncn[nH]2)c1 | inconclusive: 11.7 µM [inhibitor, single point] |
| Cc1onc(-c2ccccc2)c1C(=O)N1CCCc2ccccc21 | inconclusive: 5.22 µM [inhibitor, single point] |
| Cc1ccc(-c2nnc(N3CCN(C(=O)COc4ccccc4)CC3)c3ccccc23)cc1 | active: 5.22 µM |
| COc1ccccc1N1CCN(C(=O)c2ccc(S(=O)(=O)N3CCCCC3)cc2)CC1 | inactive |
| Cc1cc(C)n(C(=O)c2ccc(S(=O)(=O)NCC3CCCO3)cc2)n1 (stereo unspecified) | inconclusive: 10.4 µM [inhibitor, partial curve, poor fit] |
| CCC(c1ccccc1)c1nc(-c2ccccn2)no1 (stereo unspecified) | inactive |
| COc1ccccc1-c1cc(SC)c(C#N)c(=O)o1 | inactive |
| Cc1ccc(NC(=O)/C(=C\c2ccco2)NC(=O)c2ccco2)cc1 | inconclusive: 7.38 µM [inhibitor, partial curve, poor fit] |
| COC(=O)c1ccccc1NC(=O)c1ccc2nccnc2c1 | inconclusive: 13.1 µM [inhibitor, partial curve, poor fit] |
| COc1ccccc1CCNC(=O)C1CCN(C(=O)/C=C/c2ccccc2)CC1 | inactive |
| Cc1ccccc1Sc1ncnc2onc(C)c12 | active: 8.28 µM |
| COc1ccc2[nH]c3c(=O)n(CCCCCC(=O)NCCC(C)C)c(=S)[nH]c3c2c1 | inconclusive: 11.7 µM [inhibitor, partial curve, poor fit] |
| O=C(c1cc(-c2ccc(O)cc2)on1)N1CCCc2ccccc21 | inconclusive: 10.4 µM [inhibitor, single point] |

Random excerpt: two entries already listed.

| Compound | Potency |
| --- | --- |
| COc1ccccc1CCNC(=O)C1CCN(C(=O)/C=C/c2ccccc2)CC1 | inactive |
| COc1ccccc1N1CCN(C(=O)c2ccc(S(=O)(=O)N3CCCCC3)cc2)CC1 | inactive |

Following part.

| Compound | Potency |
| --- | --- |
| Cc1ccccc1NC(=O)C1CCCN(S(=O)(=O)c2ccc3c(c2)C(C)(C)C(=O)N3C)C1 (stereo unspecified) | inconclusive: 10.4 µM [inhibitor, single point] |
| CSc1ccc(CCNC(=O)c2cc(C)nn2-c2ccccc2)cc1 | inactive |
| COCCNC(=O)C(c1ccc(F)cc1)N(Cc1ccccc1)C(=O)CCC(=O)Nc1nccs1 (stereo unspecified) | inconclusive: 18.5 µM [inhibitor, single point] |
| Cc1ccc(NC(=O)c2c(C)noc2-c2snnc2C)cc1 | inconclusive: 0.415 µM [inhibitor, full curve] |
| O=C(NCCc1ccccc1)C(=O)NCC1OCCCN1S(=O)(=O)c1cc(F)ccc1F (stereo unspecified) | inconclusive: 14.7 µM [inhibitor, partial curve, poor fit] |
| CCOc1ccc(-n2nc3c(Cl)nnc(C)c3c2C)cc1 | active: 0.522 µM |
| COc1ccc(/C=N/NC(=O)Cc2n[nH]c(=O)[nH]c2=O)cc1 | inactive |
| C/C(=N\NC(=O)C1(C)CC1(Br)Br)c1cccc(NC(=O)C2CCC2)c1 (stereo unspecified) | inconclusive: 18.5 µM [inhibitor, single point] |
| CC1CCN(c2nc3ccccn3c(=O)c2C=O)CC1 | inconclusive: 13.1 µM [inhibitor, partial curve] |
| COCc1ccc(CN2CCC(CO)(CC3CCCCO3)CC2)o1 (stereo unspecified) | inconclusive: 7.38 µM [inhibitor, partial curve, poor fit] |
| COc1ccc(N=CC2=C(O)CC(C)(C)CC2=O)cc1 | inactive |
| Cc1csc(NC(=O)CCc2nc3ccccc3s2)n1 | inactive |
| O=C(NC(=S)Nc1cccnc1)c1cc2ccccc2o1 | inactive |
| CC1CCCCC1NC(=O)CSc1nnc(CN2CCOCC2)n1C (stereo unspecified) | inactive |
| COc1ccc(S(=O)(=O)N2CCCC2CNC(=O)C(=O)NCc2cccs2)cc1 (stereo unspecified) | inconclusive: 18.5 µM [inhibitor, single point] |
| COc1ccc(S(=O)(=O)N2CCCCC2)cc1C(C)C | inconclusive: 11.7 µM [inhibitor, single point] |
| Oc1cc(OCc2ccccc2)ccc1-c1[nH]ncc1-c1ccccc1 | inconclusive: 1.47 µM [inhibitor, partial curve, poor fit] |
| COc1cccc(C(c2nnnn2CC2CCCO2)N2CCN(C(=O)c3ccco3)CC2)c1OC (stereo unspecified) | inactive |
| CCOc1ccc(C(=O)NC(=S)N(Cc2ccccc2)Cc2ccccc2)cc1 | active: 2.62 µM |
| Cc1cc(OCCCC(=O)NCCN2C(=O)S/C(=C\c3cccnc3)C2=O)ccc1Cl | active: 11.7 µM |
| CC(=O)Nc1ccc(NC(=O)c2nc(S(=O)(=O)Cc3cccc(C)c3)ncc2Cl)cc1 | inconclusive: 7.38 µM [inhibitor, partial curve] |
| O=C(Nc1ccc(Br)cc1)c1cc(Br)cc(Br)c1O | inactive |
| CCc1ccccc1NC(=O)c1ccc2snnc2c1 | inconclusive: 11.7 µM [inhibitor, single point] |
| CCC(=O)NNc1nc2c(F)cc(F)cc2s1 | inactive |
| COc1ccc(N2CCN(C(=S)Nc3ccc(OC)cc3OC)CC2)cc1 | inconclusive: 11.7 µM [inhibitor, single point] |
| CCOc1ccccc1OCCN1CCCC1 | inconclusive: 18.5 µM [inhibitor, single point] |

| Compound | Potency |
| --- | --- |
| CCOc1ccc(OCC)c(NS(=O)(=O)c2cn(C)cn2)c1 | inconclusive: 18.5 µM [inhibitor, single point] |
| Cc1cccn2c(=O)c3cc(C(=O)NCCN4CCOCC4)n(C)c3nc12 | inconclusive: 18.5 µM [inhibitor, single point] |
| C=CCn1c(-c2ccccc2)n[nH]c1=S | inconclusive: 11.7 µM [inhibitor, single point] |
| CC1CN(CC(=O)Nc2cccc(C(=O)Nc3cccc(C(F)(F)F)c3)c2)CC(C)O1 (stereo unspecified) | active: 0.147 µM |
| Cc1ccc(NC(=O)C(=O)NCCN2CCN(C(=S)Nc3ccccc3)CC2)cc1 | inconclusive: 16.5 µM [inhibitor, single point] |
| O=c1oc2cc(O)ccc2cc1-c1nc2c(s1)CCc1ccccc1-2 | active: 9.28 µM |
| COc1ccc(CCNC(=O)c2c(C)cc(=O)oc2C)cc1OC | inconclusive: 0.0052 µM [inhibitor, full curve, poor fit] |
| Cc1ccc(S(=O)(=O)N(C)CC(=O)Nc2ccccc2N2CCCC2)cc1 | inconclusive: 10.4 µM [inhibitor, single point] |
| Cc1ccc(NC(=O)CSCc2ccco2)cc1 | inactive |
| NC1=NC[C@H](Cc2ccccc2)N1CCc1cccc(F)c1 | active: 3.7 µM |
| O=C(CSC1=NCCS1)N1CCN(c2ccccc2)CC1 | inactive |
| Cc1c(NC2(c3nnnn3-c3ccc(Br)cc3)CCCCC2)c(=O)n(-c2ccccc2)n1C | inconclusive: 11.7 µM [inhibitor, single point] |
| CCN(CC)C(=O)c1sc2nc(-c3ccc(OC)cc3)cn2c1C | inconclusive: 0.828 µM [inhibitor, full curve] |
| Cn1c(=O)c2c(ncn2CCNC2=NCCCCC2)n(C)c1=O | inconclusive: 3.7 µM [inhibitor, single point] |
| COc1cccc(NC(=O)C2CCC2)c1 | inactive |
| NC(=O)C1CCN(C(=O)C2CC(=O)N(c3ccc(F)cc3)C2)CC1 (stereo unspecified) | inactive |
| O=C(Cn1nnc(-c2ccc(Cl)cc2)n1)NC1CCN(Cc2ccccc2)CC1 | inconclusive: 2.08 µM [inhibitor, partial curve] |
| Cc1ccc(CC(=O)N2CCOCC2)cc1 | inactive |
| Cc1csc(NC(=O)C2CCCN(S(=O)(=O)c3cnc[nH]3)C2)n1 (stereo unspecified) | active: 11.7 µM |
| COC(=O)c1sc2ccccc2c1NC(=O)c1ccc(S(=O)(=O)N2CCC(C)CC2)cc1 | inconclusive: 13.1 µM [inhibitor, single point] |
| COc1ccc(C(=O)CCS(=O)(=O)c2ccc(F)cc2)cc1OC | inconclusive: 18.5 µM [inhibitor, single point] |
| CC(=O)NS(=O)(=O)c1ccccc1 | inconclusive: 16.5 µM [inhibitor, single point] |
| COc1ccc(C(=O)/C=C/c2cc(C(=O)O)cc3c2OCOC3)c(O)c1 | inactive |
| COC(=O)[C@@H](NC(=O)O[C@@H]1C(=O)c2cc(Br)ccc2O[C@H]1c1cccc(OC)c1)C(C)C | inactive |

Filtered by structure: those above with a thiophene ring, fused or not

| Compound | Potency |
| --- | --- |
| C[C@H](NC(=O)c1ccc(Cl)cc1)C(=O)NNC(=O)c1cccs1 | inactive |
| COc1ccc(S(=O)(=O)N2CCCC2CNC(=O)C(=O)NCc2cccs2)cc1 (stereo unspecified) | inconclusive: 18.5 µM [inhibitor, single point] |
| COC(=O)c1sc2ccccc2c1NC(=O)c1ccc(S(=O)(=O)N2CCC(C)CC2)cc1 | inconclusive: 13.1 µM [inhibitor, single point] |
